Results: PubChem BioAssay (NCATS)
The inconclusive results got no clear call from the source; some entries with a clear call stand among them for comparison. Where the call is inconclusive, the potency comes from a doubtful curve fit. A note “side channel” means that the fit belongs to a control or component signal, not to the main read-out. Calls of active or inactive are those of the source. Unless noted, calls come from the whole dose curve.

Sequences of proteins named here, by UniProt entry; tags and fusion partners are left off. A change or cut given only in a name is not applied to a line headed by its entry.
UniProt P10828: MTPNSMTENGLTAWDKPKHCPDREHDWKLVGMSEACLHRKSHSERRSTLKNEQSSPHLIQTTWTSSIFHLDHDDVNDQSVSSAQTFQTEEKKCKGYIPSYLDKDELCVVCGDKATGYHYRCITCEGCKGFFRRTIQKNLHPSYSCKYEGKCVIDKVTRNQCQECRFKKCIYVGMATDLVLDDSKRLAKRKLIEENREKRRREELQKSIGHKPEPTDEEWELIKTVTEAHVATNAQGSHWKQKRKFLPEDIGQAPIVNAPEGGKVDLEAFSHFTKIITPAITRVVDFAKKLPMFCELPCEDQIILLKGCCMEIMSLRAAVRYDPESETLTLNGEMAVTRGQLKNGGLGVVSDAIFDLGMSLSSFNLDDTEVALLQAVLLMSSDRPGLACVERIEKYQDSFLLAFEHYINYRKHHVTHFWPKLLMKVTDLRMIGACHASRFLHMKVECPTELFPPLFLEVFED
UniProt P19793: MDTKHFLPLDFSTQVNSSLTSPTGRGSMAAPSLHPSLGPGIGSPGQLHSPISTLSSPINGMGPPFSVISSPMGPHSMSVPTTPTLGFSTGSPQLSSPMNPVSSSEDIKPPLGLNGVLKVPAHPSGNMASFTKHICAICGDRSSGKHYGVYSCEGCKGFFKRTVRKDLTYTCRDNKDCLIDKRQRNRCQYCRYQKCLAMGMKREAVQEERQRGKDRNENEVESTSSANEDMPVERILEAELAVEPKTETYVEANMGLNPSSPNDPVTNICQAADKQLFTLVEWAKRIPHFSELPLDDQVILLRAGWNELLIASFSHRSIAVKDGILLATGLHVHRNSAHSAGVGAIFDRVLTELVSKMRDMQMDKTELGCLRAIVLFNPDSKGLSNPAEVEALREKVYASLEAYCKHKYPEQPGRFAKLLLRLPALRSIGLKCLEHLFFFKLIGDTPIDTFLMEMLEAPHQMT

Target: Thyroid hormone receptor beta (Homo sapiens) (UniProt P10828)
Assay: qHTS assay for small molecule agonists of thyroid hormone receptor beta signaling (AID 588545);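 for activation: 0% = DMSO only and 100% = 10 nM T3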
Settings: TR-UAS-bla GripTite HEK 293, beta-lactamase ratio, agonist mode, 18 h; activation: at 76.7 µM, percent of T3 response, DMSO as zero
Outline: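 Efficacy and EC50 values derive from Hill fits of qHTS titration data, normalized to 10 nM T3 and DMSO-only wells. HEK 293 reporter cells were stimulated for 18 hrs at 37 C, with beta-lactamase activity measured by CCF4 fluorescence.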
Potency is the fitted concentration of half-maximal effect.

Question: With `CC[C@H]1O[C@]2(CC[C@@H]1C)C[C@@H]1C[C@@H](C/C=C(\C)C[C@@H](C)/C=C/C=C3CO[C@@H]4[C@H](O)C(C)=C[C@@H](C(=O)O1)[C@]34O)O2` as the compound, how does the Potency read?
Answer: Its Potency is inconclusive: 22.4 µM [side channel, falling, full curve, poor fit].

Question: Which activation does the source give for `Cc1ccc2ncccc2c1` here?
Answer: Its activation is inactive: -5.78%.

Question: For `CO/N=C1\C[C@]2(C[C@@H]3C[C@@H](C/C=C(\C)C[C@@H](C)/C=C/C=C4\CO[C@@H]5[C@H](O)C(C)=C[C@@H](C(=O)O3)[C@]45O)O2)O[C@H](/C(C)=C/C(C)C)[C@H]1C`, which Potency is on record?
Answer: Its Potency is inconclusive: 35.5 µM [side channel, falling, partial curve, poor fit].

Question: How did the activation turn out when `Cc1ccc2nc(-c3ccc(N)cc3)sc2c1S(=O)(=O)O` was run?
Answer: Its activation is inconclusive: 1.6%.

Question: Which Potency does the source give for `N#CSCSc1nc2ccccc2s1` here?
Answer: The Potency was inconclusive: 44.7 µM [activator, single point].

Question: `CCN(Cc1c(F)cccc1Cl)c1c([N+](=O)[O-])cc(C(F)(F)F)cc1[N+](=O)[O-]` was tested. Which Potency did it give?
Answer: Its Potency is inconclusive: 0.0032 µM [side channel, falling, full curve, poor fit].

Question: Which activation does the source give for `CC1COCc2cc3c(cc21)C(C)(C)C(C)C3(C)C` (configuration not stated) here?
Answer: The activation was inactive: -2.2%.

Question: With `CC(C)CCCCCCc1ccc(OCCOCCO)cc1` as the compound, how does the Potency read?
Answer: The Potency was inconclusive: 28.2 µM [side channel, falling, full curve, poor fit].

Question: `Cn1sccc1=O` was tested. Which Potency did it give?
Answer: Its Potency is inconclusive: 0.0708 µM [side channel, falling, full curve, poor fit].

Question: `CCCCCCCCCCCC(=O)OC` was tested. Which Potency did it give?
Answer: Its Potency is inconclusive: 39.8 µM [side channel, falling, partial curve, poor fit].

Question: Which Potency does the source give for `Cc1cc(Cc2cc(C)cc(C(C)(C)C)c2O)c(O)c(C(C)(C)C)c1` here?
Answer: Its Potency is inconclusive: 31.6 µM [side channel, falling, partial curve, poor fit].

Target: Retinoic acid receptor RXR-alpha (Homo sapiens) (UniProt P19793)
Assay: qHTS assay for small molecule antagonists of retinoid X receptor alpha signaling (AID 588546; active = well fitted inhibition curve with a large enough effect in the signal ratio, with a control signal flat, not every such curve was filed as active; inconclusive = small, poorly fitted or top-dose-only effect, or effect the other way, or a change in a side signal; inactive = no such curve, though single readings can be large or run the other way; the % refers to the signal ratio;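 for max response: cells stimulated with 9-cis-retinoic acid as agonist; % is set by controls: 0 for no effect and ±100 for the full control effect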)
Settings: HEK293T RXRa-UAS-bla, beta-lactamase ratio, antagonist mode
Outline: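 Beta-lactamase reporter inhibition, read as CCF4 fluorescence ratio (ex 405, em 460/530 nm) after 2 h at RT. HEK293T UAS-bla cells, 2500/well, were stimulated with 9-cis-RA at 500 or 100 nM final alongside test compound for 18 h at 37 C.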

Question: Which Potency does the source give for `CC[C@H]1O[C@]2(CC[C@@H]1C)C[C@@H]1C[C@@H](C/C=C(\C)C[C@@H](C)/C=C/C=C3CO[C@@H]4[C@H](O)C(C)=C[C@@H](C(=O)O1)[C@]34O)O2` here?
Answer: Its Potency is inconclusive: 22.4 µM [inhibitor, full curve].

Question: Which Potency does the source give for `O=C(Nc1ccccc1)c1cc(Cl)ccc1O` here?
Answer: The Potency was inconclusive: 25.1 µM [inhibitor, full curve].

Question: With `CO/N=C1\C[C@]2(C[C@@H]3C[C@@H](C/C=C(\C)C[C@@H](C)/C=C/C=C4\CO[C@@H]5[C@H](O)C(C)=C[C@@H](C(=O)O3)[C@]45O)O2)O[C@H](/C(C)=C/C(C)C)[C@H]1C` as the compound, how does the Potency read?
Answer: The Potency was inconclusive: 25.1 µM [cytotoxic, side channel, full curve, poor fit].

Question: With `Nc1ccc(N)c2c1C(=O)c1c(N)ccc(N)c1C2=O` as the compound, how does the max response read?
Answer: Its max response is inconclusive: 7.37%.

Question: With `N#CSCSc1nc2ccccc2s1` as the compound, how does the Potency read?
Answer: The Potency was inconclusive: 50.1 µM [falling, single point].

Question: Which Potency does the source give for `CCN(Cc1c(F)cccc1Cl)c1c([N+](=O)[O-])cc(C(F)(F)F)cc1[N+](=O)[O-]` here?
Answer: Its Potency is inconclusive: 39.8 µM [inhibitor, partial curve, poor fit].

Question: With `O=C(O)C1(C(=O)Nc2ccc(Cl)cc2Cl)CC1` as the compound, how does the max response read?
Answer: The max response was inactive: 9.68%.

Question: Which Potency does the source give for `CC(C)CCCCCCc1ccc(OCCOCCO)cc1` here?
Answer: The Potency was inconclusive: 50.1 µM [cytotoxic, side channel, partial curve, poor fit].

Question: How did the Potency turn out when `CC[C@H](C)C1O[C@]2(C=C[C@@H]1C)C[C@@H]1C[C@@H](C/C=C(\C)[C@@H](O[C@H]3C[C@H](OC)[C@@H](O[C@H]4C[C@H](OC)[C@H](NC(C)=O)[C@H](C)O4)[C@H](C)O3)[C@@H](C)/C=C/C=C3\CO[C@@H]4[C@H](O)C(C)=C[C@@H](C(=O)O1)[C@]34O)O2` (some centres not stated) was run?
Answer: Its Potency is inconclusive: 20 µM [inhibitor, full curve, poor fit].

Question: How did the Potency turn out when `CCCCCCCCCC[N+](C)(C)Cc1ccccc1` was run?
Answer: The Potency was active: 35.5 µM.

Question: `O=c1[nH]sc2ccccc12` was tested. Which Potency did it give?
Answer: Its Potency is active: 20 µM.

Question: For `O=C(Nc1ccccc1)c1ccccc1O`, which Potency is on record?
Answer: The Potency was inconclusive: 44.7 µM [inhibitor, single point].

Question: How did the Potency turn out when `Cc1cc(Cc2cc(C)cc(C(C)(C)C)c2O)c(O)c(C(C)(C)C)c1` was run?
Answer: The Potency was inconclusive: 50.1 µM [cytotoxic, side channel, single point].

Target: Thyroid hormone receptor beta (Homo sapiens) (UniProt P10828)
Assay: qHTS assay for small molecule antagonists of thyroid hormone receptor beta signaling (AID 588547; active = well fitted inhibition curve with a large enough effect in the signal ratio, with a control signal flat, not every such curve was filed as active; inconclusive = small, poorly fitted or top-dose-only effect, or effect the other way, or a change in a side signal; the % refers to the signal ratio;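 for activity change % (negative = inhibition): cells stimulated with 0.4 nM T3 agonist during compound exposure; series mostly up to about 77 µM; % is set by controls: 0 for no effect and ±100 for the full control effect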)
Settings: TR-UAS-bla HEK293, beta-lactamase ratio, antagonist mode, 18 h
Outline: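 TR-UAS-bla GripTite HEK293 cells in 2% charcoal/dextran FBS medium were preincubated 4 h at 37 C, given compound (0.59 nM to 92 uM) plus 0.4 nM T3 (final) for 18 h, then CCF4 for 2 h at RT; Hill fit gave IC50.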

Question: How did the Potency turn out when `CC[C@H]1O[C@]2(CC[C@@H]1C)C[C@@H]1C[C@@H](C/C=C(\C)C[C@@H](C)/C=C/C=C3CO[C@@H]4[C@H](O)C(C)=C[C@@H](C(=O)O1)[C@]34O)O2` was run?
Answer: Its Potency is inconclusive: 28.2 µM [inhibitor, single point].

Question: How did the Potency turn out when `O=C(O)c1cc(O)c2ccccc2c1O` was run?
Answer: The Potency was inconclusive: 44.7 µM [fluorescent, side channel, partial curve, poor fit].

Question: How did the Potency turn out when `O=C(Nc1ccccc1)c1cc(Cl)ccc1O` was run?
Answer: The Potency was inconclusive: 50.1 µM [side channel, rising, single point].

Question: `O=C1NC(=O)C(Cc2ccc(OCCN3COc4ccccc4C3=O)cc2)S1` (configuration not stated) was tested. Which activity change % (negative = inhibition) did it give?
Answer: Its activity change % (negative = inhibition) is inconclusive: 25.7%.

Question: Which Potency does the source give for `CO/N=C1\C[C@]2(C[C@@H]3C[C@@H](C/C=C(\C)C[C@@H](C)/C=C/C=C4\CO[C@@H]5[C@H](O)C(C)=C[C@@H](C(=O)O3)[C@]45O)O2)O[C@H](/C(C)=C/C(C)C)[C@H]1C` here?
Answer: The Potency was inconclusive: 31.6 µM [cytotoxic, side channel, partial curve, poor fit].

Question: `Cc1ccc2nc(-c3ccc(N)cc3)sc2c1S(=O)(=O)O` was tested. Which activity change % (negative = inhibition) did it give?
Answer: Its activity change % (negative = inhibition) is inconclusive: 20%.

Question: For `CCCCCCCCCCCCCCCCCC#N`, which activity change % (negative = inhibition) is on record?
Answer: The activity change % (negative = inhibition) was inactive: 11.1%.

Question: `N#CSCSc1nc2ccccc2s1` was tested. Which Potency did it give?
Answer: Its Potency is inconclusive: 50.1 µM [falling, partial curve, poor fit].

Question: How did the Potency turn out when `CCCCCCCC/C=C\CCCCCCCCCCCCC` was run?
Answer: The Potency was inconclusive: 44.7 µM [activator, single point].

Question: Which Potency does the source give for `CCCCCCCCCCCCCCN(C)C` here?
Answer: The Potency was inconclusive: 0.0891 µM [cytotoxic, side channel, full curve, poor fit].

Question: How did the Potency turn out when `O=C=NCCCCCCN=C=O` was run?
Answer: The Potency was inconclusive: 20 µM [side channel, falling, full curve, poor fit].

Question: Which activity change % (negative = inhibition) does the source give for `O=C(O)C1(C(=O)Nc2ccc(Cl)cc2Cl)CC1` here?
Answer: The activity change % (negative = inhibition) was inconclusive: -8.57%.

Question: `CC(C)CCCCCCc1ccc(OCCOCCO)cc1` was tested. Which Potency did it give?
Answer: Its Potency is inconclusive: 44.7 µM [cytotoxic, side channel, partial curve, poor fit].

Question: With `CCCCCCCCCC[N+](C)(C)Cc1ccccc1` as the compound, how does the activity change % (negative = inhibition) read?
Answer: Its activity change % (negative = inhibition) is inconclusive: -40.1%.

Question: With `O=c1[nH]sc2ccccc12` as the compound, how does the Potency read?
Answer: The Potency was active: 15.8 µM.

Question: `O=C(Nc1ccccc1)c1ccccc1O` was tested. Which Potency did it give?
Answer: Its Potency is inconclusive: 6.31 µM [activator, partial curve, poor fit].

Question: How did the Potency turn out when `CCCCCCCCCCCC(=O)OC` was run?
Answer: Its Potency is inconclusive: 31.6 µM [cytotoxic, side channel, partial curve, poor fit].

Question: `Cc1cc(Cc2cc(C)cc(C(C)(C)C)c2O)c(O)c(C(C)(C)C)c1` was tested. Which Potency did it give?
Answer: Its Potency is inconclusive: 25.1 µM [cytotoxic, side channel, full curve, poor fit].
